Assay results from patent US6949694.
Results are given in words; binding and its absence hold for the method and conditions named. Binding seen in cells or lysates may run through a third protein. Some entries that bind do so weakly or less than the wild type. Sequences can lack the tags named with a protein.

Target: T1, FY, in vitro translated from the FY encoding EST plasmid (Genbank BG459222), [35S] methionine-labelled (Arabidopsis thaliana) (UniProt Q6NLV4)
T1 sequence (chain, [35S] methionine label): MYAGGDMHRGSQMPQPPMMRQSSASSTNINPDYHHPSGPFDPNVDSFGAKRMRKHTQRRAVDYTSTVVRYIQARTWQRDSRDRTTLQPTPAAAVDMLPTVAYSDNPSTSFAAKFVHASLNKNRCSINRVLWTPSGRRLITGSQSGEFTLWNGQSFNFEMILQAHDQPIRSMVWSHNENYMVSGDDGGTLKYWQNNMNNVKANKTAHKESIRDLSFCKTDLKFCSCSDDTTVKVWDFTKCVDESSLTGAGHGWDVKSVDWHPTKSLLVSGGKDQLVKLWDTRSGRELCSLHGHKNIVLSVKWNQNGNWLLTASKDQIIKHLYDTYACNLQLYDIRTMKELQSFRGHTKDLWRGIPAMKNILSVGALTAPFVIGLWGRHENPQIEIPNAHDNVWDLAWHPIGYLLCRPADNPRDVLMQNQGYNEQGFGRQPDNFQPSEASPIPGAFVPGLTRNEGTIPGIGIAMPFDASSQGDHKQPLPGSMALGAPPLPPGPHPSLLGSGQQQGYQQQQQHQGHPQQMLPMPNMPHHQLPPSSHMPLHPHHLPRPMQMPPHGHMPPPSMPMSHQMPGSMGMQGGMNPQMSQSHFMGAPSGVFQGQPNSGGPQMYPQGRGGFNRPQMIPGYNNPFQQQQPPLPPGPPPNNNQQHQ
Assay: GST in vitro pull-down of 35S-labelled in vitro translated FY

B1: GST:FCA-WW (protein, Arabidopsis thaliana, UniProt O04425 580-747, looked up, not shown: a dimerising Fc or GST)
chain: QTAAPAVSQSVGSVKCTWTEHTSPDGFKYYYNGLTGESKWEKPEEMIVFEREQQKQQQHQEKPTIQQSQTQLQPLQQQPQQVQQQYQGQQLQQPFYSSLYPTPGASHNTQYPSLPVGQNSQFPMSGIGQNAQDYARTHIPVGAASMNDISRTQQSRQSPQELMWKNKA
In the case of B1, the binding is reported as “binds”.
